Where two headings read alike, the source gives them in different places. These are yes or no findings as the source states them, for the method shown. In cells and extracts the contact can be indirect. A yes stands for co-enrichment or nearness to the bait. Other partners may have been found. For some assays here: Sequences can lack the tags named with a protein.
T1: ST6GALNAC1 fused to ultraID (UniProt Q9NSC7)
T1 sequence: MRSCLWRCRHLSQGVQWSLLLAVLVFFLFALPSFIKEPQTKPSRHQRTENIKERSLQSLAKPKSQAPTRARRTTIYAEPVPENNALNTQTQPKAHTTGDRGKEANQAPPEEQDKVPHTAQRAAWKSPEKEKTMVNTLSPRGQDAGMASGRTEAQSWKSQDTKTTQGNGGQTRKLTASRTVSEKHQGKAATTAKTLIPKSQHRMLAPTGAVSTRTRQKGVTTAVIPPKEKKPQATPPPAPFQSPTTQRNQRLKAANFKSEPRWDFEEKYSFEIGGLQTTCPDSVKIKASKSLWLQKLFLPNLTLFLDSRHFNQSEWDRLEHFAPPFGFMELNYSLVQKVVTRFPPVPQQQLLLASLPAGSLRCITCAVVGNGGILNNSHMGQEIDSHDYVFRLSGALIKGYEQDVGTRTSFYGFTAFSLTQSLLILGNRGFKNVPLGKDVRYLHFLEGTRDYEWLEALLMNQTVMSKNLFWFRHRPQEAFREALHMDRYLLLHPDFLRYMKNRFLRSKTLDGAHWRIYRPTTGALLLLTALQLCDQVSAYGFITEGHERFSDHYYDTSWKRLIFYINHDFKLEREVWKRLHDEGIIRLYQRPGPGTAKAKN

The chains behind the UniProt entries cited, without tags or fusion partners.
UniProt P02545: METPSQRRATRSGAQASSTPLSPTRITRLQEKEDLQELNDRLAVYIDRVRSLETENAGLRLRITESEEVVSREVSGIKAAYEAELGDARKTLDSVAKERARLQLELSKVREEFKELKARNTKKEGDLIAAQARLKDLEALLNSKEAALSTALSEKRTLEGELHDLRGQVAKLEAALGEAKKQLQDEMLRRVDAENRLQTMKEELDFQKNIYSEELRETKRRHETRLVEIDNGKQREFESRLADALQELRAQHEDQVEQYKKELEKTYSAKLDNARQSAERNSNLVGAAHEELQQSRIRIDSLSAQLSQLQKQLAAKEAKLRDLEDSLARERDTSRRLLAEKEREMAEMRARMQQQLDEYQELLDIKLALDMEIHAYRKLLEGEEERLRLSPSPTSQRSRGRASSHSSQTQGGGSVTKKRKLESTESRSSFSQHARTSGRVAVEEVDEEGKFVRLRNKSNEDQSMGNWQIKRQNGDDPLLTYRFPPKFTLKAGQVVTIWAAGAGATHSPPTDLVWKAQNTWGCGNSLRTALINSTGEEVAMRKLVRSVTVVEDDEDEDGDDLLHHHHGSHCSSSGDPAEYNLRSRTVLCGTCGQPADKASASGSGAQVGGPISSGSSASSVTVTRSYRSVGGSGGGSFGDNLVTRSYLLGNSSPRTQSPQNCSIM
UniProt P20339: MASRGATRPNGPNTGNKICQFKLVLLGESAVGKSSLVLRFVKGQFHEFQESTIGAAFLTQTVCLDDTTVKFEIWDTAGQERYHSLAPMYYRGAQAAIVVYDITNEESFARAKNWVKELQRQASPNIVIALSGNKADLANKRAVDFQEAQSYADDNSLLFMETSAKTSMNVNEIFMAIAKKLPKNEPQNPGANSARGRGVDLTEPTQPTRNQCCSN
UniProt Q10471: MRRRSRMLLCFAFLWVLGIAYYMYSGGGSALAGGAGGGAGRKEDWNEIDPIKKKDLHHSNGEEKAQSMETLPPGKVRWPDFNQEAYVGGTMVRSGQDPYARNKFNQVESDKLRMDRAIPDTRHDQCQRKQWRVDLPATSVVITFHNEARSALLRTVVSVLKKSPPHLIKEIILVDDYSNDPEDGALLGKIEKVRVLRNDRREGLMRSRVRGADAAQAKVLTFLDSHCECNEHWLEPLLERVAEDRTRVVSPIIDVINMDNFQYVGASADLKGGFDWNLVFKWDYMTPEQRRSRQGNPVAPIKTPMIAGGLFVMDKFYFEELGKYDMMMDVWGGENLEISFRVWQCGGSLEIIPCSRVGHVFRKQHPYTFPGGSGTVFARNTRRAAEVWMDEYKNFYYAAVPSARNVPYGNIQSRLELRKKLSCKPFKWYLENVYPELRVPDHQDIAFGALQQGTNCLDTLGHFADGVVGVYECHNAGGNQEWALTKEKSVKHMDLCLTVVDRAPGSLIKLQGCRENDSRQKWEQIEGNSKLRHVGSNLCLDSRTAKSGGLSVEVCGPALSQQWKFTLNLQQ
UniProt Q96SK2: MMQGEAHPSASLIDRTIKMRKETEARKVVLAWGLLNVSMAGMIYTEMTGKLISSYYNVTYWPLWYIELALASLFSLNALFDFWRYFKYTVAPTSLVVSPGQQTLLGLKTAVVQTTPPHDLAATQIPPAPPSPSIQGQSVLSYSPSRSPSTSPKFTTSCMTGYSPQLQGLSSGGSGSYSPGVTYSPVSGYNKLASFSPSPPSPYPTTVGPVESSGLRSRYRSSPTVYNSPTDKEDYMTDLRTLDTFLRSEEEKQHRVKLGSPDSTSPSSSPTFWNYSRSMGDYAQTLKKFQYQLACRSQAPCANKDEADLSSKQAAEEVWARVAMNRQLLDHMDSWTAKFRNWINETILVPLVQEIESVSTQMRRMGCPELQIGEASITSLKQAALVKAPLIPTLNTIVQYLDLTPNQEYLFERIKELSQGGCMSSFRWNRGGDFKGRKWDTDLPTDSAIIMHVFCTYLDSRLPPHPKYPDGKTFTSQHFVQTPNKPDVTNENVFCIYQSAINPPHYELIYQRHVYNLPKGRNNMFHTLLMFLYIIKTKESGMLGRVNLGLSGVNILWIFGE
UniProt A0JNW5: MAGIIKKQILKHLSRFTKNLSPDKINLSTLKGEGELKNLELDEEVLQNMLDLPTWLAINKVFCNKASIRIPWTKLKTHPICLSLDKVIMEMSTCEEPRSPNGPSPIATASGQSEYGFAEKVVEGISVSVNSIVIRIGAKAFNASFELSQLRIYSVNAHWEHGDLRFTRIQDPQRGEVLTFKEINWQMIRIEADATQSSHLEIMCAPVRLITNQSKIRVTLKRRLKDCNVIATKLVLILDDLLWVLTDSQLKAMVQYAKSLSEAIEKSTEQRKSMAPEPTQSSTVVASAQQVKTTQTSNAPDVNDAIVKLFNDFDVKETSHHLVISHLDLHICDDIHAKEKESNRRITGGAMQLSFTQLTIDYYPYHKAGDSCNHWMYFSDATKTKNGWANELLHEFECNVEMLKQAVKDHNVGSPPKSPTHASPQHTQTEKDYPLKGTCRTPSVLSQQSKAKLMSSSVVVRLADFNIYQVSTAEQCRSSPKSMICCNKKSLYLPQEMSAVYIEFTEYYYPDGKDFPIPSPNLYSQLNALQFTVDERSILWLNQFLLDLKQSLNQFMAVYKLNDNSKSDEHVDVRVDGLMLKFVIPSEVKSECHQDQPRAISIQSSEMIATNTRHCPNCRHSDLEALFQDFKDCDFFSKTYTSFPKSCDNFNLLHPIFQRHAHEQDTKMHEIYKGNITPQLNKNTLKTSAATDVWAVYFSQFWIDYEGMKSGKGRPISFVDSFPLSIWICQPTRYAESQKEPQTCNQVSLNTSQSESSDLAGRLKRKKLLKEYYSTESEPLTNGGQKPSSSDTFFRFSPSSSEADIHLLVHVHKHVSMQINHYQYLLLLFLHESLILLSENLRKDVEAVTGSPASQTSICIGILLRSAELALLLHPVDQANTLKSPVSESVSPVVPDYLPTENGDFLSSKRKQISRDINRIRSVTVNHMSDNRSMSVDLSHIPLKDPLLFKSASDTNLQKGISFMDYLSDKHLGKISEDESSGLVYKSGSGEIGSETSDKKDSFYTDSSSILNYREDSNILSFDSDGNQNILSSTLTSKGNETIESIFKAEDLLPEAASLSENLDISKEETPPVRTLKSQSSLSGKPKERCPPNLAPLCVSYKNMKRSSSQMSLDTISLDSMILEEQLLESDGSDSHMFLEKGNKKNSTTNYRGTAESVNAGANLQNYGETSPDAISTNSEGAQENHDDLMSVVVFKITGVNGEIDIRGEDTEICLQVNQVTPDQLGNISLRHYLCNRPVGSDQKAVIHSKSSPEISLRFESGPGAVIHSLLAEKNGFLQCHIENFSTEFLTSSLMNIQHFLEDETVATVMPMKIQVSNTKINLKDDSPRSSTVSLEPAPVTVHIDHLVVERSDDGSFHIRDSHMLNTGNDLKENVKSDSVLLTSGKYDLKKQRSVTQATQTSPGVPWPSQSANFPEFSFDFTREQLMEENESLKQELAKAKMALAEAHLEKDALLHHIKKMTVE
UniProt Q00610: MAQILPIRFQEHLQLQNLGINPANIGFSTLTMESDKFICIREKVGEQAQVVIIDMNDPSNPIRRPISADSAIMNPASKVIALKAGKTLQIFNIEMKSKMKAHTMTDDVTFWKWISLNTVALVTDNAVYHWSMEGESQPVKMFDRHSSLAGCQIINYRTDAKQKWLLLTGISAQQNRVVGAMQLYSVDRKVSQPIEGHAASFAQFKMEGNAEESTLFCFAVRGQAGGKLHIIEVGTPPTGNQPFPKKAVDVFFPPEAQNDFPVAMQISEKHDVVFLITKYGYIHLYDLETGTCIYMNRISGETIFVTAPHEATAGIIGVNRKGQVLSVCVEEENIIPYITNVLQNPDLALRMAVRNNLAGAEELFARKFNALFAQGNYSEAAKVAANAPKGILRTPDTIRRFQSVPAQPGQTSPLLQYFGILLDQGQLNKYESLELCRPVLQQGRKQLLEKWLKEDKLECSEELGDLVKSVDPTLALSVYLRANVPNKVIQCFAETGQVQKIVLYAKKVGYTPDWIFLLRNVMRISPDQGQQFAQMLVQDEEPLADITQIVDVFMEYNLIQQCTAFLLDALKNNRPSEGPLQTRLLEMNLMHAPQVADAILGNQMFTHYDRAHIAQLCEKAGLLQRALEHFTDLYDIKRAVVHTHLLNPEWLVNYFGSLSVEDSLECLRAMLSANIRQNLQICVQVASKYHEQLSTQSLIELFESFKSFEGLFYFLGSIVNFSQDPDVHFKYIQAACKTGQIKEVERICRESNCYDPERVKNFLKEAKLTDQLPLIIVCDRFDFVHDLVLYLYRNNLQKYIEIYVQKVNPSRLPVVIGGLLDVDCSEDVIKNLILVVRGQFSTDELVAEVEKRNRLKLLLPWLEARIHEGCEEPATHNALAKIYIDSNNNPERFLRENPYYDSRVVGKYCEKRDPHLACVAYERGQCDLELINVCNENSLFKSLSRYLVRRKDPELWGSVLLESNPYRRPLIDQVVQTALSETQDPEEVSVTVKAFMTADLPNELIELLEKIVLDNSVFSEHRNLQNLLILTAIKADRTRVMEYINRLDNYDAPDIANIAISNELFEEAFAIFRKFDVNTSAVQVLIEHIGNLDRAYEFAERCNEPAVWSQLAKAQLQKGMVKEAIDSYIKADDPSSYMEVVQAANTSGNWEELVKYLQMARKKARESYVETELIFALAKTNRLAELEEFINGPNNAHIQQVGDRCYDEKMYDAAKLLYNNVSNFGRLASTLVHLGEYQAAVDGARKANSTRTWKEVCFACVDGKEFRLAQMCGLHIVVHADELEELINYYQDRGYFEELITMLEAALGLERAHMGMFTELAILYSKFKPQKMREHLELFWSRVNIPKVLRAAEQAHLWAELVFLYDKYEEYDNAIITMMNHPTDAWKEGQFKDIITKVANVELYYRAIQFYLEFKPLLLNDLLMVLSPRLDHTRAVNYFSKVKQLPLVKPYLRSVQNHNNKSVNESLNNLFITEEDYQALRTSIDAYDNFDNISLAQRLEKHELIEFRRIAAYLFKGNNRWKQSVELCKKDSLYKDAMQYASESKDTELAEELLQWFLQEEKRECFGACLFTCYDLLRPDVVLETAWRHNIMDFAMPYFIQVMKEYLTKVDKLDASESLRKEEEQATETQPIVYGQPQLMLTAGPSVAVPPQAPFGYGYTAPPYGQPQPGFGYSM
UniProt O94901: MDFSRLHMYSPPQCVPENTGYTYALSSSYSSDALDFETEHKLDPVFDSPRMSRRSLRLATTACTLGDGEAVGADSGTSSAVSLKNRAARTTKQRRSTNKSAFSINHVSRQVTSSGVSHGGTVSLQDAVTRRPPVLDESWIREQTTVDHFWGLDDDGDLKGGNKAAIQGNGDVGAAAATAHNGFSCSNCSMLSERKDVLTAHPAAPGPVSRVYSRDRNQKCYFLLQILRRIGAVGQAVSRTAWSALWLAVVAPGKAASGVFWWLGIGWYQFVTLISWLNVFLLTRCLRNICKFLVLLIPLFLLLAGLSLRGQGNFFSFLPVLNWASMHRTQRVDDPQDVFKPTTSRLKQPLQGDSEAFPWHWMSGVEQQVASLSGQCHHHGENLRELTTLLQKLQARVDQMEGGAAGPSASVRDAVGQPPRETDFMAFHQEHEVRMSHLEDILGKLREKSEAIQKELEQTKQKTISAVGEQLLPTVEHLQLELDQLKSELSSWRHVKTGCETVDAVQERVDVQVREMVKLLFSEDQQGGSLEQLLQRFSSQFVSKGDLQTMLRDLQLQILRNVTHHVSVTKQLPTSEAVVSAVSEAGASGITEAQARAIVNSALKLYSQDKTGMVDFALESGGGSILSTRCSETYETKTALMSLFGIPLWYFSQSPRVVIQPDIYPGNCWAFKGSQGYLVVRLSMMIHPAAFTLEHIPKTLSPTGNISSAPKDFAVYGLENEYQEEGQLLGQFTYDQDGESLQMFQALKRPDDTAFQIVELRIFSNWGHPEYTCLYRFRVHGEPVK
UniProt Q9BWN1: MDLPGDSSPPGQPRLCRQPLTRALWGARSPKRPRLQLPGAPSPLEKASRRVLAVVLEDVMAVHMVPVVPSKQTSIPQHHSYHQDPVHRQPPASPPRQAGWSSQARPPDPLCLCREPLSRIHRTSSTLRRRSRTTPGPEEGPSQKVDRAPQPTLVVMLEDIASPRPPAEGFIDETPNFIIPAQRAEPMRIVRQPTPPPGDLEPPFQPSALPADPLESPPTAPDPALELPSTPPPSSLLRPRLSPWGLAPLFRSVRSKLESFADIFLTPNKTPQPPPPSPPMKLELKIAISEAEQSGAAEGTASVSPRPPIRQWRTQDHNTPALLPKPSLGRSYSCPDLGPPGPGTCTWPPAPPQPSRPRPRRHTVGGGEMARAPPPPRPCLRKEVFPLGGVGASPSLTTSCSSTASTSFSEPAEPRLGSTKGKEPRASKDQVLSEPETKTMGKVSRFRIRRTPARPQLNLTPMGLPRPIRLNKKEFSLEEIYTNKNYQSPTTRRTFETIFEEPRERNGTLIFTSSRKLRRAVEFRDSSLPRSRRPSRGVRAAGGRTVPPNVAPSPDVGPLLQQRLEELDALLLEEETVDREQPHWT


Legend:
Experiment in all cases: proximity labelling
[1] = target: T1, ST6GALNAC1 fused to ultraID
[2] = target: LMNA N-terminally fused to microID2 (UniProt P02545)
[3] = target: LMNA N-terminally fused to ultraID (UniProt P02545)
[4] = target: LMNA N-terminally fused to AirID (UniProt P02545)
[5] = target: LMNA N-terminally fused to BASU (UniProt P02545)
[6] = target: LMNA N-terminally fused to lbmicroID2 (UniProt P02545)
[7] = target: LMNA N-terminally fused to microID (UniProt P02545)
[8] = target: LMNA N-terminally fused to BioID2 (UniProt P02545)
[9] = target: LMNA N-terminally fused to BirA* (UniProt P02545)
[10] = target: LMNA N-terminally fused to TurboID (UniProt P02545)
[11] = target: LMNA N-terminally fused to miniTurbo (UniProt P02545)
[12] = target: miniTurbo-RAB5A (UniProt P20339)
[13] = target: ultraID-RAB5A (UniProt P20339)
[14] = target: LMNA N-terminally fused to microID2 (UniProt P02545); remark: listed apart in the source
[15] = target: LMNA N-terminally fused to ultraID (UniProt P02545); remark: listed apart in the source
[16] = target: LMNA N-terminally fused to AirID (UniProt P02545); remark: listed apart in the source
[17] = target: LMNA N-terminally fused to BASU (UniProt P02545); remark: listed apart in the source
[18] = target: LMNA N-terminally fused to lbmicroID2 (UniProt P02545); remark: listed apart in the source
[19] = target: LMNA N-terminally fused to microID (UniProt P02545); remark: listed apart in the source
[20] = target: LMNA N-terminally fused to BioID2 (UniProt P02545); remark: listed apart in the source
[21] = target: LMNA N-terminally fused to BirA* (UniProt P02545); remark: listed apart in the source
[22] = target: LMNA N-terminally fused to TurboID (UniProt P02545); remark: listed apart in the source
[23] = target: LMNA N-terminally fused to miniTurbo (UniProt P02545); remark: listed apart in the source
[24] = target: ultraID-RAB5A (UniProt P20339); remark: listed apart in the source
[25] = target: miniTurbo-RAB5A (UniProt P20339); remark: listed apart in the source

Molecule	binding [2]	binding [3]	binding [4]	binding [5]	binding [6]	binding [7]	binding [8]	binding [9]	binding [10]	binding [11]	binding [12]	other results
GALNT2 (from UniProt Q10471 1-571)	–	–	–	–	–	–	–	–	–	–	–	binding [1]: binds
TMEM209 (from UniProt Q96SK2 1-561)	binds	binds	binds	binds	binds	binds	binds	binds	binds	binds	–	–
BLTP3B (from UniProt A0JNW5 1-1464)	–	–	–	–	–	–	–	–	–	–	binds	binding [13]: binds
GALNT14 (from UniProt Q96FL9 1-552)	–	–	–	–	–	–	–	–	–	–	–	binding [1]: binds
OCRL (from UniProt Q01968 1-901)	–	–	–	–	–	–	–	–	–	–	binds	binding [13]: binds
CLTC (from UniProt Q00610 1-1675)	–	–	–	–	–	–	–	–	–	–	binds	binding [13]: binds
MAN1A1 (from UniProt P33908 1-653)	–	–	–	–	–	–	–	–	–	–	–	binding [1]: binds
FAM169A (protein, UniProt Q9Y6X4 1-670) MAFPVDMLENCSHEELENSAEDYMSDLRCGDPENPECFSLLNITIPISLSNVGFVPLYGGDQTQKILALFAPEDSLTAVALYLADQWWAIDDIVKTSVPSREGLKQVSTLGERVVLYVLNRIIYRKQEMERNEIPFLCHSSTDYAKILWKKGEAIGFYSVKPTGSICASFLTQSYQLPVLDTMFLRKKYRGKDFGLHMLEDFVDSFTEDALGLRYPLSSLMYTACKQYFEKYPGDHELLWEVEGVGHWYQRIPVTRALQREALKILALSQNEPKRPMSGEYGPASVPEYEARTEDNQSSEMQLTIDSLKDAFASTSEGHDKTSVSTHTRSGNLKRPKIGKRFQDSEFSSSQGEDEKTSQTSLTASINKLESTARPSESSEEFLEEEPEQRGIEFEDESSDRDARPALETQPQQEKQDGEKESELEPMNGEIMDDSLKTSLITEEEDSTSEVLDEELKLQPFNSSEDSTNLVPLVVESSKPPEVDAPDKTPRIPDSEMLMDEGTSDEKGHMEEKLSLLPRKKAHLGSSDNVATMSNEERSDGGFPNSVIAEFSEEPVSENLSPNTTSSLEDQGEEGVSEPQETSTALPQSSLIEVELEDVPFSQNAGQKNQSEEQSEASSEQLDQFTQSAEKAVDSSSEEIEVEVPVVDRRNLRRKAKGHKGPAKKKAKLT	–	–	–	–	–	–	–	–	–	–	–	binding [14]: binds; binding [15]: binds; binding [16]: binds; binding [17]: binds; binding [18]: binds; binding [19]: binds; binding [20]: binds; binding [21]: binds; binding [22]: binds; binding [23]: binds
YWHAQ (protein, UniProt P27348 1-245) MEKTELIQKAKLAEQAERYDDMATCMKAVTEQGAELSNEERNLLSVAYKNVVGGRRSAWRVISSIEQKTDTSDKKLQLIKDYREKVESELRSICTTVLELLDKYLIANATNPESKVFYLKMKGDYFRYLAEVACGDDRKQTIDNSQGAYQEAFDISKKEMQPTHPIRLGLALNFSVFYYEILNNPELACTLAKTAFDEAIAELDTLNEDSYKDSTLIMQLLRDNLTLWTSDSAGEECDAAEGAEN	–	–	–	–	–	–	–	–	–	–	–	binding [24]: binds; binding [25]: binds

Continued, in another order:

binding [2]	binding [3]	binding [4]	binding [5]	binding [6]	binding [7]	binding [8]	binding [9]	binding [10]	binding [11]	binding [12]	Molecule	other results
binds	binds	binds	binds	binds	binds	binds	binds	binds	binds	–	VRK2A (from UniProt Q86Y07-1 1-508)	–
–	–	–	–	–	–	–	–	–	–	binds	DNAJA1 (from UniProt P31689 1-397)	–
binds	binds	binds	binds	binds	binds	binds	binds	binds	binds	–	SUN1 (from UniProt O94901 1-785)	–
binds	binds	binds	binds	binds	binds	binds	binds	binds	binds	–	PRR14 (from UniProt Q9BWN1 1-585)	–
